No constants are given. Whether binding was seen depends on the method and setting. Some binding calls cover weakened binding; strength is not graded here.
Target: human 4-1BB expressed on CHO-K1 cells (CHO-K1/h4-1BB) (human) (UniProt Q07011)
Experiment: flow cytometry on cells; indirect flow cytometry; 2.5 x10^5 stable CHO-K1 cells expressing the human receptor treated with 0, 0.2, 1, 5, 10 μg/mL purified Fc fusion protein, 45 min at 4°C; detected with FITC mouse anti-human IgG; only the binder purified

Protein sequences, listed by entry. Tags and fused reporters are not part of them. Residues count along the entry.
UniProt Q07011, residues 24-255: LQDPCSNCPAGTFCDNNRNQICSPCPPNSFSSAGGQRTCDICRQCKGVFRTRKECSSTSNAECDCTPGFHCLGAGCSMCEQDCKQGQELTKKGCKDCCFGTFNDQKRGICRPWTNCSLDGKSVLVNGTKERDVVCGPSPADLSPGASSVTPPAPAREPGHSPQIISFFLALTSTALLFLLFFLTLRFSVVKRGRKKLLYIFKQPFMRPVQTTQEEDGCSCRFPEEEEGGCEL
UniProt P41273, residues 50-254: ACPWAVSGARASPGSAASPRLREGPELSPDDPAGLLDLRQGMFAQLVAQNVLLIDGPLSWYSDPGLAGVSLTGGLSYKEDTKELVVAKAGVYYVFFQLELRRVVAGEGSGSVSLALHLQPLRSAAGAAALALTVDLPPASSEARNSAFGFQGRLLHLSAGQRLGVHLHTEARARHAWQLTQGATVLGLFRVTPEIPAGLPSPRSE

- binding: binds
Substance: 4-1BBL extracellular domain (ECD)-Fc fusion protein (from UniProt P41273 50-254)

From publication PMC9731445
